Measurements: PubChem BioAssay AID248 (DTP/NCI, 2004)
The list shows only some results of the screen, not a fair sample: its compounds were picked by chemical class. Not every dose and run of a compound is shown. T/C: endpoint of the treated group in % of that of the vehicle group. For survival time, this PubChem deposit counts one and a half times the control or more as active, and values a quarter to a half above the control carry no call in these data; other NCI protocols may use other cut-offs. Some entries show no survivor count and are marked so; the dose need not have been tolerated. Schedules are NCI's codes, read here as Q, the interval in days (D) or hours (H), X, the number of doses. Some entries hold several experiments; their values stand side by side, smallest first. Some schedule codes hold Z or #, which are not explained here.

Test system: L1210 leukemia ip in BDF1 mice, survival T/C
Experiment: NCI In Vivo Anticancer Drug Screen. Data for tumor model L1210 Leukemia (intraperitoneal) in B6D2F1 (BDF1) mice
Details: T/C endpoint: mean survival time, higher T/C = longer survival
[1] = dose: 50.0 mg/kg/injection, schedule: Q01DX001 (ip), vehicle: saline

In the case of `ClCCNCCCCNCCCl`, the T/C (dose: 2.5 mg/kg/injection, schedule: Q#A X034 (ip), vehicle: saline) is reported as 104 % of control [survivor count not shown], the T/C (dose: 5.0 mg/kg/injection, schedule: Q01DX017 (ip), vehicle: saline) is reported as 101 % of control [survivor count not shown] and the T/C (dose: 5.0 mg/kg/injection, schedule: Q#A X034 (ip), vehicle: saline) is reported as 112 % of control [survivor count not shown]. The T/C (dose: 10.0 mg/kg/injection, schedule: Q01DX017 (ip), vehicle: saline) was 113 % of control [survivor count not shown], the T/C (dose: 10.0 mg/kg/injection, schedule: Q02DX009 (ip), vehicle: saline) was 106 % of control [survivor count not shown] and the T/C (dose: 10.0 mg/kg/injection, schedule: Q#A X034 (ip), vehicle: saline) was 126 % of control [survivor count not shown]. For the same compound, the T/C (dose: 11.0 mg/kg/injection, schedule: Q01DX Z (ip), vehicle: saline) was 113 % of control [survivor count not shown], the T/C (dose: 17.0 mg/kg/injection, schedule: Q01DX Z (ip), vehicle: saline) was 130 % of control [survivor count not shown] and the T/C (dose: 20.0 mg/kg/injection, schedule: Q01DX017 (ip), vehicle: saline) was 184 % of control [survivor count not shown]. The T/C (dose: 20.0 mg/kg/injection, schedule: Q02DX009 (ip), vehicle: saline) was 119 % of control [survivor count not shown], the T/C (dose: 20.0 mg/kg/injection, schedule: Q#A X034 (ip), vehicle: saline) was 147 % of control [survivor count not shown] and the T/C (dose: 25.0 mg/kg/injection, schedule: Q01DX Z (ip), vehicle: saline) was 133 [survivor count not shown], 138 [survivor count not shown], 142 % of control [survivor count not shown]. The T/C (dose: 37.0 mg/kg/injection, schedule: Q01DX Z (ip), vehicle: saline) was 148 [survivor count not shown], 163 [survivor count not shown], 170 % of control [survivor count not shown], the T/C (dose: 40.0 mg/kg/injection, schedule: Q01DX017 (ip), vehicle: saline) was 150 % of control [survivor count not shown] and the T/C (dose: 40.0 mg/kg/injection, schedule: Q02DX009 (ip), vehicle: saline) was 138 % of control [survivor count not shown]. The T/C (dose: 40.0 mg/kg/injection, schedule: Q#A X034 (ip), vehicle: saline) was 97 % of control [survivor count not shown], the T/C [1] was 135 % of control [survivor count not shown] and the T/C (dose: 55.0 mg/kg/injection, schedule: Q01DX Z (ip), vehicle: saline) was 144 % of control [survivor count not shown]. For the same compound, the T/C (dose: 56.0 mg/kg/injection, schedule: Q01DX Z (ip), vehicle: saline) was 97 [survivor count not shown] and 172 % of control [survivor count not shown], the T/C (dose: 80.0 mg/kg/injection, schedule: Q01DX017 (ip), vehicle: saline) was 117 % of control [survivor count not shown] and the T/C (dose: 80.0 mg/kg/injection, schedule: Q02DX009 (ip), vehicle: saline) was 136 % of control [survivor count not shown]. The T/C (dose: 84.0 mg/kg/injection, schedule: Q01DX Z (ip), vehicle: saline) was 93 [survivor count not shown], 127 [survivor count not shown], 155 % of control [survivor count not shown], the T/C (dose: 100.0 mg/kg/injection, schedule: Q01DX001 (ip), vehicle: saline) was 137 % of control [survivor count not shown] and the T/C (dose: 125.0 mg/kg/injection, schedule: Q01DX Z (ip), vehicle: saline) was 100 % of control [survivor count not shown]. For the same compound, the T/C (dose: 160.0 mg/kg/injection, schedule: Q02DX009 (ip), vehicle: saline) was 100 % of control [survivor count not shown] and the T/C (dose: 200.0 mg/kg/injection, schedule: Q01DX001 (ip), vehicle: saline) was 164 % of control [survivor count not shown].
With `CC#CC(O)(C(=O)OC1C2CCN(CC2)C1CC)C1CCCC1` (stereo unspecified) the T/C (dose: 25.0 mg/kg/injection, schedule: Q01DX001 (ip), vehicle: Klucel (hydroxypropylcellulose) (HPC)) was 101 % of control [survivor count not shown], the T/C (dose: 50.0 mg/kg/injection, schedule: Q01DX001 (ip), vehicle: Klucel (hydroxypropylcellulose) (HPC)) was 104 % of control [survivor count not shown] and the T/C (dose: 100.0 mg/kg/injection, schedule: Q01DX001 (ip), vehicle: Klucel (hydroxypropylcellulose) (HPC)) was 94 [survivor count not shown] and 101 % of control [survivor count not shown].
With `CN(C)C1CCCCC(OC(=O)C(O)(c2ccccc2)c2ccccc2)C1` (stereo unspecified) the T/C (dose: 9.5 mg/kg/injection, schedule: Q01DX001 (ip), vehicle: other) was 100 % of control [survivor count not shown], the T/C (dose: 19.0 mg/kg/injection, schedule: Q01DX001 (ip), vehicle: other) was 105 % of control [survivor count not shown] and the T/C (dose: 38.0 mg/kg/injection, schedule: Q01DX001 (ip), vehicle: other) was 98 % of control [survivor count not shown]. For the same compound, the T/C (dose: 75.0 mg/kg/injection, schedule: Q01DX001 (ip), vehicle: other) was 89 % of control [survivor count not shown].
For `ClCCCCC(CCl)NCCCl` (stereo unspecified), the T/C (dose: 12.5 mg/kg/injection, schedule: Q01DX009 (ip), vehicle: saline) was 98 [survivor count not shown] and 101 % of control [survivor count not shown], the T/C (dose: 25.0 mg/kg/injection, schedule: Q01DX009 (ip), vehicle: saline) was 134 [survivor count not shown] and 141 % of control [survivor count not shown] and the T/C (dose: 25.0 mg/kg/injection, schedule: Q04DX003 (ip), vehicle: saline) was 114 % of control [survivor count not shown]. The T/C (dose: 33.0 mg/kg/injection, schedule: Q01DX001 (ip), vehicle: saline) was 116 % of control [survivor count not shown], the T/C [1] was 125 % of control [survivor count not shown] and the T/C (dose: 50.0 mg/kg/injection, schedule: Q01DX009 (ip), vehicle: saline) was 162 [survivor count not shown] and 167 % of control [survivor count not shown]. For the same compound, the T/C (dose: 50.0 mg/kg/injection, schedule: Q04DX003 (ip), vehicle: saline) was 113 % of control [survivor count not shown], the T/C (dose: 75.0 mg/kg/injection, schedule: Q01DX001 (ip), vehicle: saline) was 137 [survivor count not shown] and 143 % of control [survivor count not shown] and the T/C (dose: 100.0 mg/kg/injection, schedule: Q01DX009 (ip), vehicle: saline) was 88 % of control [survivor count not shown]. For the same compound, the T/C (dose: 100.0 mg/kg/injection, schedule: Q04DX003 (ip), vehicle: saline) was 133 % of control [survivor count not shown], the T/C (dose: 112.5 mg/kg/injection, schedule: Q01DX001 (ip), vehicle: saline) was 153 % of control [survivor count not shown] and the T/C (dose: 150.0 mg/kg/injection, schedule: Q01DX001 (ip), vehicle: saline) was 109 % of control [survivor count not shown]. The T/C (dose: 200.0 mg/kg/injection, schedule: Q04DX003 (ip), vehicle: saline) was 153 % of control [survivor count not shown].
